# Measurements: article PMC6857076 (Pharmacology Research & Perspectives, 2019)
# Tested on: JAK-dependent cytokine receptors
# Test: Integrated modeling: calculated cytokine receptor inhibitory concentrations (ICxx)
# Parameters: species or system human
# Conditions: calculated ICxx at clinically meaningful doses, Figure 1
compound,measurement,value
CCS(=O)(=O)N1CC(CC#N)(n2cc(-c3ncnc4[nH]ccc34)cn2)C1 [Baricitinib],"Inhibition (ICxx) of JAK2/TYK2-mediated cytokine receptors (IL-12, IL-23, and EPO) vs other JAK inhibitors",numerically greater
